Laboratory results: PubChem BioAssay AID1159596 (NIAID, 2016)
Test: 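Which toll-like receptor signalling genes are needed for TNF promoter activity driven by peptidoglycan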 (primary screen). Cells: human THP1 B5 monocytic reporter cells made macrophage-like with PMA. Knock-down reagent: single siRNA against human genes. Timing: assayed 48 to 72 hours after siRNA transfection; peptidoglycan stimulation lasted 4 hours. Treatment: Staphylococcus aureus peptidoglycan for 4 hours; dose not given. Detection: 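TNF-alpha promoter firefly/renilla luciferase ratio after 4 h s. aureus peptidoglycan; plate median/MAD scaled, robust z versus negative control wells, mean of replicates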. Reading the numbers: TNF reporter z-score: higher = stronger TNF promoter reporter response to peptidoglycan. Call rule: In these data the active calls have TNF reporter z-score, replicate mean at about -1.5 or lower, or at about 1.5 or higher. Calls: active = reporter shifted beyond cut (either direction); inactive = reporter near control level.
The whole screen tested 756 reagents; below is a part drawn at random. Of all reagents, 143 (19%) got an active call. 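Active means the reporter moved past about ±1.5 in either direction; scores are per single siRNA, not per gene; peptidoglycan dose not given.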 A number with no mark means an inactive call. The numbers tell different reagents against one gene apart. Not given: the amount of reagent.

gene knocked down | reagent | TNF reporter z-score, replicate mean
TIRAP | 1 | -4.89 (active)
TIRAP | 2 | -5.42 (active)
TIRAP | 3 | -5.83 (active)
TIRAP | 4 | -0.0224
TIRAP | 5 | -0.933
TIRAP | 6 | -5.23 (active)
TRAF6 | 1 | -3.81 (active)
TRAF6 | 2 | -3.55 (active)
TRAF6 | 3 | -4.74 (active)
TRAF6 | 4 | -2.15 (active)
TRAF6 | 5 | -3.04 (active)
TRAF6 | 6 | -2.28 (active)
IRAK3 | 1 | -0.34
IRAK3 | 2 | -0.613
IRAK3 | 3 | -0.406
IRAK3 | 4 | -0.568
IRAK3 | 5 | -0.51
IRAK3 | 6 | -0.336
FOS | 1 | 0.327
FOS | 2 | 0.164
FOS | 3 | -0.431
FOS | 4 | 0.00486
FOS | 5 | 0.81
FOS | 6 | -0.0655
TBKBP1 | 1 | 0.311
TBKBP1 | 2 | 0.0689
TBKBP1 | 3 | -0.465
TBKBP1 | 4 | 0.822
TBKBP1 | 5 | 0.322
TBKBP1 | 6 | -0.823
CREBBP | 1 | 1.61 (active)
CREBBP | 2 | 0.164
CREBBP | 3 | 1.16
CREBBP | 4 | 0.614
CREBBP | 5 | 0.475
CREBBP | 6 | 0.751
MAPK14 | 1 | -1.32
MAPK14 | 2 | -1.9 (active)
MAPK14 | 3 | -0.906
MAPK14 | 4 | -2.24 (active)
MAPK14 | 5 | -1.16
MAPK14 | 6 | -1.96 (active)
STAT1 | 1 | -0.312
STAT1 | 2 | 0.217
STAT1 | 3 | -2.09 (active)
STAT1 | 4 | -0.607
STAT1 | 5 | 1.06
STAT1 | 6 | -1.89 (active)
TLR7 | 1 | -0.525
TLR7 | 2 | 1.56 (active)
TLR7 | 3 | -1.25
TLR7 | 4 | -0.858
TLR7 | 5 | -0.0173
TLR7 | 6 | 0.174
PTPN6 | 1 | -1.06
PTPN6 | 2 | 1.15
PTPN6 | 3 | -0.176
PTPN6 | 4 | -1.69 (active)
PTPN6 | 5 | -1.61 (active)
PTPN6 | 6 | -1.19
UBE2N | 1 | 0.267
UBE2N | 2 | -0.599
UBE2N | 3 | 0.677
UBE2N | 4 | -1.21
UBE2N | 5 | -0.0783
UBE2N | 6 | 0.789
EGR1 | 1 | -2.24 (active)
EGR1 | 2 | -1.96 (active)
EGR1 | 3 | -2.08 (active)
EGR1 | 4 | -0.735
EGR1 | 5 | -1.13
EGR1 | 6 | -1.38

Ordered by “TNF reporter z-score, replicate mean” (ascending): 19 of the entries above
gene knocked down | reagent | TNF reporter z-score, replicate mean
TBKBP1 | 6 | -0.823
IRAK3 | 5 | -0.51
TBKBP1 | 3 | -0.465
FOS | 3 | -0.431
IRAK3 | 6 | -0.336
FOS | 6 | -0.0655
FOS | 4 | 0.00486
TBKBP1 | 2 | 0.0689
FOS | 2 | 0.164
CREBBP | 2 | 0.164
TBKBP1 | 1 | 0.311
TBKBP1 | 5 | 0.322
FOS | 1 | 0.327
CREBBP | 5 | 0.475
CREBBP | 4 | 0.614
FOS | 5 | 0.81
TBKBP1 | 4 | 0.822
CREBBP | 3 | 1.16
CREBBP | 1 | 1.61 (active)

The list goes on.
gene knocked down | reagent | TNF reporter z-score, replicate mean
REL | 1 | 0.256
REL | 2 | -0.494
REL | 3 | -0.174
REL | 4 | -0.526
REL | 5 | -0.45
REL | 6 | -0.336
LY86 | 1 | -0.376
LY86 | 2 | -0.71
LY86 | 3 | 0.0326
LY86 | 4 | -2.01 (active)
LY86 | 5 | -0.0889
LY86 | 6 | 0.0606
NFKBIE | 1 | -1.93 (active)
NFKBIE | 2 | -1.66 (active)
NFKBIE | 3 | -0.889
NFKBIE | 4 | -2.95 (active)
NFKBIE | 5 | -1.34
NFKBIE | 6 | -3.43 (active)
TICAM1 | 1 | -1.07
TICAM1 | 2 | 0.225
TICAM1 | 3 | -0.178
TICAM1 | 4 | -1.89 (active)
TICAM1 | 5 | -0.384
TICAM1 | 6 | -0.336
PIK3CA | 1 | 0.0605
PIK3CA | 2 | -0.512
PIK3CA | 3 | -2 (active)
PIK3CA | 4 | 0.39
PIK3CA | 5 | -1.05
PIK3CA | 6 | 0.936
CD180 | 1 | 0.113
CD180 | 2 | 0.235
CD180 | 3 | -1.99 (active)
CD180 | 4 | 0.69
CD180 | 5 | -0.0112
CD180 | 6 | 1.04
IKBKG | 1 | -1.98 (active)
IKBKG | 2 | -0.401
IKBKG | 3 | -0.32
IKBKG | 4 | -1.09
IKBKG | 5 | 0.694
IKBKG | 6 | -2.13 (active)
